Results from article PMC6169833.
Results are given in words; binding and its absence hold for the method and conditions named. In cells and extracts the contact can be indirect. Some binding calls cover weakened binding; strength is not graded here.

Chains of the proteins cited; added tags and fusions are not shown. Residues count along the entry.
UniProt P49790, residues 1-608: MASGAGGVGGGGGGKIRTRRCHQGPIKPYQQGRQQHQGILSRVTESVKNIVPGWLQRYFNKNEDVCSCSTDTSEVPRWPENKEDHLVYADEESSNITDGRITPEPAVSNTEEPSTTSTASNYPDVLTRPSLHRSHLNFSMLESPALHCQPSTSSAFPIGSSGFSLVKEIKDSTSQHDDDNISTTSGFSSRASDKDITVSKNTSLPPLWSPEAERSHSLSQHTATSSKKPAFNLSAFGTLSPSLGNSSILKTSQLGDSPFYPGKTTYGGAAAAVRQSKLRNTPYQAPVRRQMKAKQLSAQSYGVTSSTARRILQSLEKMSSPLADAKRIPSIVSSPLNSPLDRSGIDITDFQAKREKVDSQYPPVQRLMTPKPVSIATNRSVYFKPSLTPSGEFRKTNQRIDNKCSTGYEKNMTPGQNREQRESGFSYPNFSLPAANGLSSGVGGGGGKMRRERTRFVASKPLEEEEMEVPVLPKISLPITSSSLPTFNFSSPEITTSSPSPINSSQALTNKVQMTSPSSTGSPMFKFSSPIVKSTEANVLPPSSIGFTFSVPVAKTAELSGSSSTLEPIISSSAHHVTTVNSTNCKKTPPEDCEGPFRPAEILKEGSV

Target: Nup153-N wild type (1- to 608-amino-acid N-terminal construct of Nup153), C-terminally Flag-tagged (human) (UniProt P49790)
Assay: co-IP; Flag-M2 agarose beads, lysates of HEK293T cells 72 h after transfection; buffer-1 (150 mM NaCl, 10 mM Tris-Cl pH 7.5, 0.1% Triton X-100, 1 mM EDTA, 0.25% NaDoC, 1 mM DTT); 2 h at 4°C, five washes; Western blotting

- binding: binds
B1: endogenous Nup107 (protein, UniProt P57740 1-925)
chain: MDRSGFGEISSPVIREAEVTRTARKQSAQKRVLLQASQDENFGNTTPRNQVIPRTPSSFRQPFTPTSRSLLRQPDISCILGTGGKSPRLTQSSGFFGNLSMVTNLDDSNWAAAFSSQRSGLFTNTEPHSITEDVTISAVMLREDDPGEAASMSMFSDFLQSFLKHSSSTVFDLVEEYENICGSQVNILSKIVSRATPGLQKFSKTASMLWLLQQEMVTWRLLASLYRDRIQSALEEESVFAVTAVNASEKTVVEALFQRDSLVRQSQLVVDWLESIAKDEIGEFSDNIEFYAKSVYWENTLHTLKQRQLTSYVGSVRPLVTELDPDAPIRQKMPLDDLDREDEVRLLKYLFTLIRAGMTEEAQRLCKRCGQAWRAATLEGWKLYHDPNVNGGTELEPVEGNPYRRIWKISCWRMAEDELFNRYERAIYAALSGNLKQLLPVCDTWEDTVWAYFRVMVDSLVEQEIQTSVATLDETEELPREYLGANWTLEKVFEELQATDKKRVLEENQEHYHIVQKFLILGDIDGLMDEFSKWLSKSRNNLPGHLLRFMTHLILFFRTLGLQTKEEVSIEVLKTYIQLLIREKHTNLIAFYTCHLPQDLAVAQYALFLESVTEFEQRHHCLELAKEADLDVATITKTVVENIRKKDNGEFSHHDLAPALDTGTTEEDRLKIDVIDWLVFDPAQRAEALKQGNAIMRKFLASKKHEAAKEVFVKIPQDSIAEIYNQCEEQGMESPLPAEDDNAIREHLCIRAYLEAHETFNEWFKHMNSVPQKPALIPQPTFTEKVAHEHKEKKYEMDFGIWKGHLDALTADVKEKMYNVLLFVDGGWMVDVREDAKEDHERTHQMVLLRKLCLPMLCFLLHTILHSTGQYQECLQLADMVSSERHKLYLVFSKEELRKLLQKLRESSLMLLDQGLDPLGYEIQL
